Assay results published in article doi:10.1101/2020.11.06.341933.
The exact form of at least one protein or probe is not confirmed.

Molecular target: His-NtrX, phosphorylated (NtrXr-P) (Sinorhizobium meliloti 1021) (UniProt Q92Q87)
Test: EMSA
Conditions: acetyl phosphate-phosphorylated

Sequence: TGGGGCAATGGCTGAAAGAAAGTTTCTAGATCGGTCGGCATATCGCCGGACGAGACAGGTGTTCGAGTTTGAAGGAATTGGCCGGCTCGGCAAGGCGGCCAGGGAAAGAGAAGGAACAGGACATGGCCATCAACTTGCAGAAGCCGGACATTACCGAGCTGAAGCCGCGTATCACGGTCTTCGG (double strand) [PftsZ1 probe]
- binding result: binds
